Source: patent publication US7112578B2, “Methods and compositions for treatment of inflammatory disease” (priority 2000, dated 2006)
For at least one compound, name, drawing or mass did not settle the structure.

What was measured:
Type in all cases: in vivo, human
bilateral hip arthritis = assay: Treatment of bilateral hip arthritis with a CMO compound and doxycycline (case report)
Method: Doxycycline therapy was used for treatment of a middle aged person suffering from bilateral hip arthritis and experiencing severe pain despite increasing doses of NSAIDs. […] Cox-2 inhibitors were substituted for the NSAID agents with better results. However, over time, it was necessary to increase the doses of both agents to two to three times the initial dose in order to maintain adequate symptomatic relief. […] A CMO compound was added and the dosage of the other agents decreased to initial levels. […] The Cox-2 agent was discontinued with no increase in severity of symptoms.

[1] = tested on: ankle and knee arthritis pain; assay: Treatment of ankle and knee arthritis with a CMO compound and doxycycline (case report)
knee arthritis = assay: Treatment of knee arthritis with a CMO compound and a tetracycline compound (case report)
Method: NSAID therapy was halted and tetracycline therapy was added.

Compound | relief of pain, doxycycline added to NSAIDs (bilateral hip arthritis; middle aged person, severe pain despite increasing doses of NSAIDs) | symptoms when the agent was discontinued (bilateral hip arthritis; patient on CMO compound and doxycycline) | symptoms when the agent was discontinued ([1]; combination of CMO compound and doxycycline) | result after doxycycline was added to CMO therapy ([1]; female senior citizen) | symptoms when the agent was discontinued (knee arthritis; despite increase in dose of the remaining agent) | symptomatic control after tetracycline therapy was added (knee arthritis; tetracycline added to CMO therapy, NSAID therapy halted)
C[C@H]1c2cccc(O)c2C(=O)C2=C(O)[C@]3(O)C(=O)C(C(N)=O)=C(O)[C@@H](N(C)C)[C@@H]3[C@@H](O)[C@@H]21 [doxycycline] | Rapid relief of pain to a more acceptable level | symptoms increasing | Symptoms returned | excellent results | – | –
CN(C)[C@@H]1C(O)=C(C(N)=O)C(=O)[C@@]2(O)C(O)=C3C(=O)c4c(O)cccc4[C@@](C)(O)[C@H]3C[C@@H]12 [tetracycline, reference compound] | – | – | – | – | symptoms worsened | Rapid and effective symptomatic control
